Drawing on PubChem BioAssay AID2685 (National Center for Advancing Translational Sciences (NCATS), 2010), this text covers cell number change and AC50 for 17 compounds.

The experiment is described as follows: qHTS Assay for Lipid Storage Modulators in Drosophila S3 Cells.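 On cell number change: cells counted by Cell Tracker Red CMTPX staining in the red channel.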 The conditions noted are these: BODIPY lipid droplet fluorescence, 18-24 h; for cell number change: measured here: cell count max response, cells fed with added oleic acid. The essentials:
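Drosophila S3 cells loaded with oleic acid (400 uM, as added) and compounds at several concentrations; lipid droplets imaged by 488-nm laser-scanning cytometry, 500–530 nm intensity and object ratio to cell channel. Percent activity normalized to 20 uM Triacsin C.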

The mark [1] stands for this setting: measured here: lipid fluorescence (Fed channel) AC50, cells fed with added oleic acid.
Where [2] appears, read: measured here: cell number channel AC50, cells fed with added oleic acid.

This is one part of the list. The main result of the screen is listed elsewhere. These columns were measured beside it and carry no call. The list favours compounds with an active or inconclusive main result. Words in brackets tell the shape of the fitted curve; partial curves, single points and poor fits give uncertain potencies.

`CCn1cc(C(=O)O)c(=O)c2cc(F)c(N3CCN(C(=S)NC(=O)c4cccc(F)c4)CC3)cc21`: the cell number change is -15.2%. Besides, the AC50 (as a rule, the concentration giving half of the maximal activity seen) under setting [1] is 6.51 µM [falling, single point].
For `C=CCN1C(=O)/C(=C\c2cc(Br)c(OCc3ccccn3)c(OC)c2)SC1=S`, the cell number change is -9.49%. Moreover, under setting [2], the half-maximal activity concentration (AC50) is 0.58 µM [rising, full curve].
On to `CCSc1nc(C)c(C(C)=O)cc1C#N`, for which the cell number change is 0.0256%. Also, under setting [1], the half-maximal activity concentration (AC50) is 0.0651 µM [rising, full curve, poor fit].
Consider `CCCCC1(C(=O)OCC)CC(CSC(=N)N)OC1=O` (stereo not drawn), for which the cell number change is -2.48%. Besides, the AC50 under setting [1] was 4.11 µM [falling, full curve, poor fit].
For the compound `CCn1nnnc1SCC(=O)N1CCN(Cc2ccc3c(c2)OCCO3)CC1`, the cell number change was -5.16%. Further, the concentration at half-maximal activity (AC50) under setting [1] was 2.59 µM [falling, full curve].
With `Oc1ccc(Br)cc1C=Nc1ccc2[nH]ncc2c1`, the cell number change is 2.96%. The AC50 under setting [1] is 11.6 µM [falling, single point].
With `O=C(CCc1ccccc1)Nc1ccc(NC(=O)c2ccco2)cc1`, the cell number change came to 9.65%. In addition, the concentration at half-maximal activity (AC50) under setting [1] was 5.8 µM [rising, partial curve].
`CCN(c1ccccc1)S(=O)(=O)c1ccc(C(=O)Nc2ccncc2)cc1`: the cell number change worked out at 102%. Also, under setting [2], the AC50 is 18.4 µM [rising, partial curve]. Further, the concentration at half-maximal activity (AC50) under setting [1] is 25.9 µM [falling, single point].
On to `CC(=O)N(CCC1(C(C)C)CCOC(C)(C)C1)Cc1ccco1` (stereo not drawn), for which the cell number change worked out at 3.12%. Also, under setting [1], the AC50 was 25.9 µM [rising, single point].
Consider `COc1cccc(NC(=O)N2CCCCCC2)c1`, for which the cell number change was -20.3%.
As for `O=C(NC(c1ccccc1)c1c(O)ccc2ccccc12)c1ccccc1Cl` (stereo not drawn), the cell number change is -33.6%. Besides, the AC50 under setting [2] was 23.1 µM [falling, single point]. Moreover, under setting [1], the half-maximal activity concentration (AC50) is 29.1 µM [falling, single point].
For the compound `Cc1cccc(NC(=O)c2snc3c(=O)[nH]cnc23)c1`, the cell number change stood at 1.54%. The concentration at half-maximal activity (AC50) under setting [1] is 0.731 µM [falling, single point].
`COc1cc(CO)cc(Br)c1OCC(=O)N1CCCCC1`: the cell number change is -11.6%. Further, under setting [1], the AC50 is 20.6 µM [falling, partial curve, poor fit].
`O=C(CCNC(=O)c1ccc([N+](=O)[O-])cc1)Nc1cccc(S(=O)(=O)N2CCCCCC2)c1`: the cell number change worked out at 16.5%.
For the compound `Cc1cc(C(=O)NCCCN(C)C)c2ccccc2n1`, the cell number change amounted to 28%.
For `Cc1ccc2c(c1)cc(CN(Cc1ccc3c(c1)OCO3)S(=O)(=O)c1ccccc1)c1nnnn12`, the cell number change is -19.7%. Moreover, the concentration at half-maximal activity (AC50) under setting [1] was 0.82 µM [rising, full curve, poor fit].
With `CC(C)CN1C(=O)C(=O)N(CC(=O)N(C)CC(=O)Nc2ccc(F)cc2)C1=O`, the cell number change was -20.9%. Moreover, under setting [1], the AC50 was 29.1 µM [falling, single point].
